# Measured values published in publication PMC12040169 (PLOS Biology, 2025).
# The other results are listed elsewhere or left out.
# Tested on: T1, CTL2-GFP (C. trachomatis L2/434/Bu, GFP-expressing)
# T1 construct: L2/434/Bu, GFP-expressing
# Set-up: species or system HeLa; Intracellular C. trachomatis growth in HeLa cells, bulk GFP fluorescence relative to DMSO
# Details: bulk GFP, single well; 28.5 h, 10 µM; inhibitor
row,SMILES,% of control remaining [%]
1,CC(=O)Nc1cccc(NC(=S)Nc2ccc(S(N)(=O)=O)cc2)c1 [CBK267091],126.754
2,Cc1cc(C)nc(-n2ncc(C#N)c2NC(=O)c2ccccc2)n1 [CBK288135],109.328
3,CCCSc1nc2cc(C(=O)OC)ccc2c(=O)n1CC1CCCO1 (centres unmarked) [CBK306031],149.258
4,Cc1cc(CN(C)Cc2cnn(-c3ccc(Cl)cc3)c2)n[nH]1 [CBK281912],130.825
5,O=C(COc1ccccc1)NC(=S)Nc1cc(-c2nc3ncccc3o2)ccc1Cl [CBK264380],100
6,CN(CCCN1CCC(C(=O)NC(c2cccnc2)c2ccc3c(c2)OCO3)CC1)S(C)(=O)=O (centres unmarked) [CBK148505],157.948
7,Cc1nc(NS(=O)(=O)c2cc(Cl)sc2Cl)sc1C(=O)N1CCN(C)CC1 [CBK045818],115.424
8,Cc1ccc(C(=O)NCCN2CCOCC2)c(N2CCN(C(=O)c3ccco3)CC2)n1 [CBK076312],91.2653
9,Cc1nc(NS(=O)(=O)c2c(C)noc2C)sc1C(=O)N1CCOCC1 [CBK050574],118.455
10,CCOc1cccc(-c2cncc(N3CCN(c4ccccn4)CC3)n2)c1 [CBK065985],125.253
11,Cc1ccccc1NC(=O)Cc1nnc(SCC(=O)c2ccccc2)n1C [CBK269719],111.092
12,CSCCCNC(=O)N1CCN(Cc2ccccc2)CC1 [CBK155623],110.319
13,COC(=O)c1c(NC(=S)NCc2cccnc2)sc(C)c1C [CBK267029],157.813
14,Cc1ccc([N+](=O)[O-])cc1NC1OC(C(O)CO)C(O)C1O (centres unmarked) [CBK262031],100
15,O=C(N/N=C/c1cccc(OC(=O)c2cccc(Br)c2)c1)c1ccncc1 [CBK262249],97.568
16,NC(=O)Nn1c(CCC(=O)O)ccc1-c1cccs1 [CBK266019],201.867
17,FC(F)(F)c1cccc(NC(=S)Nc2ccc(Cc3ccncc3)cc2)c1 [CBK267251],114.78
18,CCn1c2cc(C)sc2c2cnn(CC(=O)NC3CC3)c(=O)c21 [CBK284170],118.401
19,Nc1ncc(Br)nc1N[C@@H](CO)c1ccccc1 [CBK074321],114.784
20,Cc1ccc(-c2nnc(CN3C(=O)C4(CC(=O)N(Cc5ccccc5)C4=O)c4ccccc43)o2)cc1 (centres unmarked) [CBK075749],119.243
21,CCCN1CC(NS(=O)(=O)c2cc(-n3cccn3)ccc2C)CC1=O (centres unmarked) [CBK306835],121.899
22,O=C1CN(Cc2ccc(Cl)cc2)CCO1 [CBK023036C],170.859
23,OC12CCCCC1CN(CC1=Cc3ccccc3OC1)CC2 (centres unmarked) [CBK282954],106.648
24,COc1ccc(CN2C(=O)CO[C@H]3CN(C(=O)COc4ccccc4)C[C@H]32)cc1 [CBK289262],88.8468
25,CCC1CN(C(C)=O)CCC1NCc1ccc(OCC(N)=O)cc1 (centres unmarked) [CBK305168],112.455
26,CC(C)CN(C)CC(=O)NC1(c2ccccc2)CCC1 [CBK067455T],114.986
27,O=S(=O)(c1ccc(Cl)cc1)c1ccc2ccnc(N3CCCNCC3)c2c1 [CBK036416C],129.947

# Reformatted tab-delimited: entries from further up.
row	SMILES	% of control remaining [%]
3	CCCSc1nc2cc(C(=O)OC)ccc2c(=O)n1CC1CCCO1 (centres unmarked) [CBK306031]	149.258
4	Cc1cc(CN(C)Cc2cnn(-c3ccc(Cl)cc3)c2)n[nH]1 [CBK281912]	130.825
5	O=C(COc1ccccc1)NC(=S)Nc1cc(-c2nc3ncccc3o2)ccc1Cl [CBK264380]	100
6	CN(CCCN1CCC(C(=O)NC(c2cccnc2)c2ccc3c(c2)OCO3)CC1)S(C)(=O)=O (centres unmarked) [CBK148505]	157.948
7	Cc1nc(NS(=O)(=O)c2cc(Cl)sc2Cl)sc1C(=O)N1CCN(C)CC1 [CBK045818]	115.424
8	Cc1ccc(C(=O)NCCN2CCOCC2)c(N2CCN(C(=O)c3ccco3)CC2)n1 [CBK076312]	91.2653
9	Cc1nc(NS(=O)(=O)c2c(C)noc2C)sc1C(=O)N1CCOCC1 [CBK050574]	118.455
10	CCOc1cccc(-c2cncc(N3CCN(c4ccccn4)CC3)n2)c1 [CBK065985]	125.253
11	Cc1ccccc1NC(=O)Cc1nnc(SCC(=O)c2ccccc2)n1C [CBK269719]	111.092
12	CSCCCNC(=O)N1CCN(Cc2ccccc2)CC1 [CBK155623]	110.319
13	COC(=O)c1c(NC(=S)NCc2cccnc2)sc(C)c1C [CBK267029]	157.813
14	Cc1ccc([N+](=O)[O-])cc1NC1OC(C(O)CO)C(O)C1O (centres unmarked) [CBK262031]	100
15	O=C(N/N=C/c1cccc(OC(=O)c2cccc(Br)c2)c1)c1ccncc1 [CBK262249]	97.568
16	NC(=O)Nn1c(CCC(=O)O)ccc1-c1cccs1 [CBK266019]	201.867

# (next part)

row,SMILES,% of control remaining [%]
1,CCc1nc2c(N3CCC(n4nc(C)cc4C)C3)ncnc2o1 (centres unmarked) [CBK306785],92.9298
2,Cc1c(S(=O)(=O)Nc2nnc(C(F)(F)F)s2)sc2ccc(Cl)cc12 [CBK062018],135.9
3,COc1ccccc1OCC(=O)N1CCC(Cn2cncn2)(C2CCCCC2)CC1 [CBK136797],109.892
4,O=C(Nc1cccc(Cl)c1)N1CCCC(c2nc(-c3ccccc3)c3ccccn23)C1 (centres unmarked) [CBK047233],124.057
5,CN1CCN(C(=O)c2cccc(-n3cccn3)c2)C(c2ccccc2)C1 (centres unmarked) [CBK282013],124.104
6,O=C1NCCc2c1[nH]c1c(Cl)cccc21 [CBK015762],111.6
7,O=C(CCn1c(-c2ccccc2)c(-c2ccccc2)c2ccccc21)N/N=C/c1ccccc1O [CBK262353],42.5931
8,CC(=O)N1CCN(CCNc2ncnc3sc4c(c23)CCC(C)C4)CC1 (centres unmarked) [CBK304897],109.503
9,COCC(=O)N1CCN(C(=O)N2CCOCC2)C[C@@H]1C(=O)OC [CBK289613],102.44
10,COc1cc(CN2CCN(c3cc(C)ccc3C)CC2)ccc1OCc1ccccc1 [CBK261898],119.388
11,CN(C)C(=O)C1(c2ccccc2)CCNC1 (centres unmarked) [CBK023394C],86.7587
12,O=C(Nc1ccccc1)c1ccc(S(=O)(=O)N2CCC(C(=O)O)CC2)cc1 [CBK267806],138.841
13,C=C(Br)Cn1c(COc2cccc3ccccc23)nc2ccccc21 [CBK263373],92.1994
14,CC(C)(C)NC(=O)CSc1nnc(Cc2cccc3ccccc23)n1-c1ccccc1 [CBK266039],84.2273
15,O=C(CN1CCOCC1)Nc1ccc(Br)cc1[N+](=O)[O-] [CBK267314],94.2513
16,Cc1ccc(C2(CN3CCN(CC4CCOC4)CC3)CC2)cc1 (centres unmarked) [CBK282479],142.209
17,COc1cc(F)ccc1-c1ccnc2[nH]c(=O)ccc12 [CBK073727],114.102
18,CCCCc1noc(C(C)S(=O)(=O)Cc2csc(CCCC)n2)n1 (centres unmarked) [CBK305431],104.494
19,CC(C)Cc1cc(CNC(=O)C(C)n2cc(Cl)cn2)on1 (centres unmarked) [CBK281524],130.198
20,Cc1ccc(C2Nc3ccccc3C3=NCCCN32)o1 (centres unmarked) [CBK284488],59.8619
21,CCn1cc(C(=O)O)c(=O)c2cc(F)c(N3CCN(C(=S)Nc4ccc(F)c(Cl)c4)CC3)cc21 [CBK267921],108.993
22,CCN(CC)CCn1c2ccc(C)cc2c2nc(C)sc21 [CBK269764C],138.113
23,COc1ccc([C@@]23CCC(NC(=O)Nc4ccc(OCc5ccccc5)cc4)C[C@@H]2N(C)CC3)cc1OC (some centres unmarked) [CBK047551T],100
24,c1coc(-c2nccnc2NCc2cccs2)c1 [CBK037340],139.237
25,Cn1c(=O)oc2ccccc2c1=O [CBK015658],117.834
26,O=C(c1cc[nH]n1)N1CCOCC1 [CBK027868],147.992
27,CN(C)CCN(C)c1cncc(-c2cccs2)n1 [CBK065679],143.145

row,SMILES,% of control remaining [%]
1,CC(C)CN(Cc1ccc2c(c1)OCO2)C(=O)NCc1ccc2c(c1)OCO2 [CBK159071],116.683
2,CCN(CC)C(=O)Cc1ccc(NC(=O)NCc2cnn(C)c2)cc1 [CBK304918],119.133
3,O=c1cc(-c2ccccc2)nc(N2CCOCC2)[nH]1 [CBK003840],117.097
4,CSc1nnc(-c2cccc(C)c2)n1CC(C)C [CBK076764T],118.453
5,O=C(NCc1ccco1)c1cnoc1-c1ccc(F)cc1 [CBK154960],92.5814
6,CCOc1ccc(OC(=O)c2ccc(OC(F)(F)F)cc2)cc1 [CBK149207],98.7296
7,NS(=O)(=O)c1cc(C(=O)NCCc2ccc(F)cc2)c(Cl)cc1Cl [CBK288512],103.097
8,O=C1CCCN1CCCNC(=O)N1CCCCC1CO (centres unmarked) [CBK155985],87.8378
9,O=C(O)CCNc1nc(Cc2ccccc2)nc2sc3c(c12)CCCC3 [CBK265345],110.437
10,Cn1cnc2c1c(=O)n(CCCN1C(=O)C3(CC(=O)N(Cc4ccccc4)C3=O)c3cc(F)ccc31)c(=O)n2C (centres unmarked) [CBK075717],220.534
11,COc1ccccc1C1NC(=O)COC12CCN(Cc1ccccc1)CC2 (centres unmarked) [CBK092265],100.113
12,COCCn1c(CO)nnc1[C@H]1C[C@@H](NC(=O)c2ccc(O)c(F)c2)C1 [CBK307132],110.924
13,CC(CNC(=O)c1ccc([N+](=O)[O-])o1)N1CCc2sccc2C1 (centres unmarked) [CBK297749],85.3964
14,Cc1nn(Cc2ccccc2)c(Cl)c1C=Cc1cc(C(=O)O)c2ccccc2n1 [CBK296942],124.628
15,CCNC(=O)Nc1ncc(-c2cc(OC)c(OC)c(OC)c2)c2cccnc12 [CBK070635],111.889
16,O=C(/C=C/c1ccc(C(=O)Nc2cccnc2)cc1)Nc1cccnc1 [CBK265617],100
17,CCCCN(C)c1c(CC)nc2ccc(C(=O)NCCc3ccccn3)cn12 [CBK145441],81.4179
18,CCN(CC)C(=O)C1CCCN(C(=O)NCc2cc(C)on2)C1 (centres unmarked) [CBK156114],117.28
19,CS(=O)(=O)N1CCN(c2ccccc2NC(=O)COc2ccc(Cl)cc2)CC1 [CBK268854],153.838
20,COc1cc2[nH]c(=S)n(CCc3ccc(S(N)(=O)=O)cc3)c(=O)c2cc1OC [CBK268457],117.855
21,NNC(=O)c1cc2ccccc2cc1NS(=O)(=O)c1ccccc1 [CBK263261],101.785
22,COc1ccc(-c2cc(NC3CCCCC3)ncn2)cc1 [CBK090904],198.015
23,O=C1NC2(CC3CCC2N3Cc2ccco2)Nc2ccccc21 (centres unmarked) [CBK284446],130.191
24,c1ccc(N2CCOCC2)c(COc2cncc(N3CCNCC3)n2)c1 [CBK172351G],121.527
25,CCN1C(=O)C2(CC(=O)N(CCc3scnc3C)C2=O)c2cc(C)ccc21 (centres unmarked) [CBK075217],115.719
26,Cc1cc(C)cc(NC(=O)C2C3C4CCC(C4)C23)c1 (centres unmarked) [CBK058768],124.564
